# Among all 53,000 sequences or so, about 3,700 (7%) were called active.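 The calls were made as follows: active = gene knockdowns whose robust z-score for IL-1 alpha signal is at least 2 or at most -2, so actives lie on both sides; inactive = the rest.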 The list shows a part of the results.
# Assay: Components of the Cytosolic LPS Sensing Pathway: Gene Identification via Genome-wide siRNA Screen;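 also: robust z of the log signal after scaling to non-targeting control siRNA wells of the plate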
# Conditions: RAW264.7 macrophages, IL-1a HTRF, actives lie on both sides, screened at 100 nM (by protocol), cells primed 5 h with Pam3CSK4 first
# Summary of the method: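 RAW264.7 mouse macrophages reverse-transfected with single siRNAs (100 nM final) for 48h, primed with Pam3CSK4 for 5 hours, then transfected with LipidA for 24 hour. Supernatant IL-1a read by HTRF; values normalized to negative-control median, log-transformed robust z-scores.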
row,Sequence,z-score
1,CGUAUUGCCUUAGUGUAUGTT against Olfr433,active: -2.7
2,GCCAUGAGACACCUUCUCUTT against Olfr843,inactive: -1.96
3,CCGGAAGCUAUUGACCAUUTT against Tmem11,active: 3.21
4,AGUUCCCACCAAAAACUUATT against Iigp1b,inactive: -0.4
5,GGCCAAGUCAAAAUAUUCUTT against Gpr137b,inactive: 1.45
6,CCUAUAGCUUCGGCAAGACTT against Mlxip,inactive: 0.655
7,GGGUCUACCUGACAAUAAATT against Dgkk,inactive: -0.943
8,GGAAGAUCAUAAUGGACAGTT against Pcsk9,active: 6.01
9,GCAUCAAGGCUCAUAUGAUTT against Taf15,inactive: 0.384
10,GCAAGGCUUGGGUAACCAUTT against Apbb1ip,inactive: 0.141
11,GGAACAUCUUCACUUAGUATT against Kcna6,inactive: 1
12,CCAUUUUCUCAGUGAUCAATT against Taar7a,inactive: -0.314
13,GCACUUAUGGCCAUUUCAGTT against Emc4,inactive: 0.192
14,GGACAUGGCACAUCAAGUCTT against Rpusd4,inactive: -0.512
15,GGAUUACCUGGAGAAGUACTT against Pga5,inactive: -1.44
16,GGAAUCAGUUUCCCUGUAUTT against Igsf5,inactive: -0.632
17,GCAUGUGUAUGAUAAGAUCTT against Bbs5,inactive: 0.0354
18,GGAGAUACUAUGUUGCAUUTT against Fgf9,inactive: 0.537
19,CCAAGAGUAACCUCUACAATT against Hivep3,inactive: -0.125
20,GGCAAAGUGAUAUUUUCAATT against Slc6a12,inactive: 0.394
21,GGUAAAUGCAGAGGGAACATT against Ak5,inactive: 0.836
22,GGAUUAAAGAUGCUUCCAATT against Ap1ar,inactive: 0.762

row,Sequence,z-score
1,GCCCUGGCCACAUGUAGUUTT against Olfr98,inactive: 0.835
2,GCAGUCCAAAAAAUUCGGUTT against Stox2,active: -2.15
3,GGCAGAGACCACUAAUACCTT against Tmem131l,inactive: -0.881
4,GGAAGGUUGUCUUACUUUUTT against Pkd2,inactive: -0.322
5,GGAUGUUUUCCAGUAUGAATT against Nox1,inactive: 0.109
6,GCAGCUUGACCAAGUCCAUTT against Wipi1,inactive: 0.195
7,GGAAGCCCACUACAACAAUTT against Krt19,inactive: -0.236
8,GCAUAUUGUGCGACUUUUCTT against Utp15,active: -2.16
9,CGCGCUUUUUAGCAAAUAUTT against Hoxa7,inactive: 1.31
10,CCAUUUUACACCUCAAUCATT against Fggy,inactive: -0.687
11,GGUAGUUCAGAGACACGGGTT against Otos,inactive: 1.28
12,GCUAUACGAAGACUUCAGCTT against Hdhd3,inactive: 0.972
13,GGAAGAAAACAAUCAGAUGTT against Cd209a,inactive: -0.0123
14,GCAUCAGUAUGAGAUUAGGTT against Ccne2,inactive: -0.421
15,GCAAUGGACACGAUUCUUATT against Tvp23b,inactive: 0.87
16,GCUCUUGAGCCUACAACUGTT against Pmfbp1,inactive: -0.122
17,GCAAUAGAUCUGGUCCUUUTT against Olfr552,inactive: 0.334
18,CGUGUAUCAUCUCAAGUGUTT against Lmo4,inactive: 1.14
19,GGAUGACUGUUAUUUUUGUTT against Sema4g,inactive: -0.0503
20,GGAACAUGUAUCCCAAAGCTT against Cysrt1,inactive: 0.666
21,GGAGUAGAAGAAGAGGAGUTT against Mrpl50,inactive: 0.946
22,CGUACCUAAUCUGCCUAUCTT against Zic3,inactive: 0.0287

row,Sequence,z-score
1,GGUUGCUUCAUUGAUGUAUTT against Olfr867,inactive: -1.6
2,GCCAGUACGAAGUGAUCUGTT against Ackr4,active: 2.8
3,GGGCAAGACUUAAUUUUGGTT against Dppa1,inactive: -0.36
4,GGAGGGAAGGCUGUGAAUATT against Syt7,inactive: -0.344
5,CCAUUGAAGCCGAAUCAGATT against Slfn3,inactive: -0.0672
6,GAACUCCCAACCCUGGCAATT against Klk1b5,inactive: 0.347
7,GGCUCAAAGCCAAUCUGAATT against Recql4,active: 2.06
8,CGUACCUUUUUUAUCCUAATT against 6030445D17Rik,inactive: -1.29
9,GGAGGAGGACUUUGAUGACTT against Gon4l,inactive: -0.128
10,GAGCUAUGUUCUUGGAUGATT against Vmn1r47,inactive: -0.573
11,GGAGAAGCUGAAAUUUCUGTT against Tesc,inactive: -0.0493
12,CCCAUUUAAAUACAUACGATT against Ly9,inactive: 0.956
13,GGUUGUCGCCAGAAUCAAGTT against Slc9a3r2,active: 2.28
14,GGAGCUAAAAGAGAUCAACTT against Bicd2,inactive: 1.33
15,GCUACGGAACAAUCACAGCTT against Kdm5d,inactive: 1.73
16,CUGUUACCUAUCCCUCAUCTT against Sstr3,inactive: -0.663
17,GGUUUAGAUGAUUUCUUCCTT against Ap3m1,inactive: 0.861
18,GGCACUCCAUGGAAAUUAGTT against Sh3rf3,inactive: -0.994
19,GCUAGCAGAGAUACAAUGUTT against Rasal3,active: 3
20,GGAAGUAAUUCACAACCAGTT against Pfdn1,inactive: -0.0518
21,CCAUGUUCAUCUUCUUGGGTT against Olfr76,inactive: -1.04
22,CGUCAAUCACACAGAUAUUTT against Cd28,inactive: -0.34

row,Sequence,z-score
1,GGACCCAUUGGUCAUCAUATT against Tent5b,inactive: 0.18
2,GGAAGAUGUUUAUUCAAGUTT against Abhd10,inactive: -0.113
3,GGAAGAGAAAGAGGUCAGATT against Aptx,inactive: 0.136
4,GGAAGUGUAUAAUUUCCUGTT against Aco2,inactive: 0.684
5,GGAACCACACAUGUGUUAATT against Grik2,inactive: -0.281
6,GCUAAUAUAGAGUAUCUGUTT against Enox1,inactive: -0.345
7,GGGACUUCGCUAUGCAGUGTT against Tyw1,inactive: 0.157
8,GGAUGAUAAAGACAAAGUATT against Ppm1g,inactive: -0.921
9,GGGAUGGGAUAGGGACAUATT against Epha10,inactive: 0.831
10,CGAACUGUUGAGAGACAAGTT against Trpv4,inactive: -0.537
11,CGAUUAGAGGCACGUCAGUTT against Neurod1,inactive: -0.561
12,GCAGUGGAUGUAUUGUAAATT against 0610009B22Rik,inactive: -0.377
13,CGGUAUCAUAGCUUAGCACTT against Rab5a,inactive: 1.31
14,GGAUGAGGAUUUUGAUUGGTT against Spsb3,inactive: 0.641
15,CCACCAUUUACUGAGUUUATT against Scn2b,inactive: -0.324
16,GGAAGAAAAGACAAAUCUGTT against Cinp,inactive: 0.741
17,GGUUGUGCAGGGAAACUUATT against Ap3m2,inactive: -0.468
18,GGUCAGAAAAGUAUGUUGGTT against Naip5,inactive: 0.208
19,GGCAGUAGAACAGAUCAGATT against Sf1,inactive: -0.0346
20,GCACUUAGACUAUUCCAGGTT against Tph2,inactive: -0.118
21,GCUAUUGUUAUAGUAUCUGTT against Olfr688,inactive: -0.413
22,GCACAAAUACACCAAUCUCTT against Eif2b5,inactive: 0.776

row,Sequence,z-score
1,CGACAACAUUCGGAGAGGATT against Tspan15,inactive: 0.193
2,CCAUUCAGUCGAUUACAUUTT against Chd9,inactive: 0.204
3,GGUGGAACUGACACAAGAATT against Gk2,inactive: 0.348
4,GCUCUGAUGGAACGCAUGATT against Sesn2,inactive: -0.289
5,GGAGGAAGUUACAGAUGUGTT against Nog,inactive: -0.588
6,GGAUGACAGUUGAAUCGCCTT against Selenom,inactive: -1.72
7,GGAUUGUUGAAAGAAACAUTT against Mrpl32,inactive: -0.122
8,CCAUUCUCUUUACCUCAAUTT against Rdh12,inactive: -0.161
9,GCUGAACAAACCCACCGGUTT against Ppox,inactive: 0.505
10,GGAAUCUUCCACAAGCUGUTT against Papolb,inactive: 0.722
11,GUCCUUCUCAUCAUGGGACTT against Sec61g,inactive: -0.248
12,CCAAAUCUCUCAAUUUAGGTT against Taf9b,inactive: 0.265
13,GGCUGGAGAAAAUGAUGAATT against Rwdd1,inactive: -0.267
14,GGUGUGCCCUAUGAAUCGATT against Itpr2,inactive: -0.657
15,GGAAGAGAUGAAGAAAAUGTT against Cetn1,inactive: -1.01
16,GGCAAAACCUACAUGGCCCTT against Drd1,inactive: 0.566
17,GCCAGUACUCUGCUUGUGATT against Naif1,inactive: -1.64
18,GCCCUCUUAGGAGUGAUUATT against Zfp219,inactive: 0.54
19,GCUGGUAUCAUGAUUUUGGTT against Gm5134,inactive: 0.391

# Looked up one by one from the entries so far, two records:
row,Sequence,z-score
10,GGAAUCUUCCACAAGCUGUTT against Papolb,inactive: 0.722
12,CCAAAUCUCUCAAUUUAGGTT against Taf9b,inactive: 0.265

# Single values from above:
# z-score with GGAGGAAGUUACAGAUGUGTT against Nog is entered as inactive: -0.588
# z-score with GCUGGUAUCAUGAUUUUGGTT against Gm5134 is entered as inactive: 0.391
# z-score with GGAAGAGAUGAAGAAAAUGTT against Cetn1 is entered as inactive: -1.01
# z-score with GGAAUCUUCCACAAGCUGUTT against Papolb is entered as inactive: 0.722
# z-score with GCUCUGAUGGAACGCAUGATT against Sesn2 is entered as inactive: -0.289

# Reference: PubChem BioAssay AID1508600 (Functional Genomics Laboratory (NCATS/FGL), 2020)
